From the supplement of paper PMC10849652
The list shows a part of the results.

By UniProt entry, the sequences of proteins in these tests, tags left out. Where a name states a change or a piece, a line headed by the entry shows the natural chain unless it says otherwise.
UniProt Q9HC36: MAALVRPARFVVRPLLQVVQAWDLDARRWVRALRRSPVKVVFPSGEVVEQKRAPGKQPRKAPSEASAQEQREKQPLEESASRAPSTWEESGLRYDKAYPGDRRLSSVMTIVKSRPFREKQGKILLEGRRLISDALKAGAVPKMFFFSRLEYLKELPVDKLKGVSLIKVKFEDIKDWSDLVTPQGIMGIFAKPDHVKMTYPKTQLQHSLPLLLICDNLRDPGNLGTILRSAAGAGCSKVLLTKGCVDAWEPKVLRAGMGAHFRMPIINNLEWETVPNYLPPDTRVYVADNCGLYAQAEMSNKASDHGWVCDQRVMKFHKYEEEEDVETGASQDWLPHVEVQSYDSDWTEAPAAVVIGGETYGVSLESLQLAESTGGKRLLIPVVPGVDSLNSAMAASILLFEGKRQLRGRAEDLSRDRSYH
UniProt Q9UHC7: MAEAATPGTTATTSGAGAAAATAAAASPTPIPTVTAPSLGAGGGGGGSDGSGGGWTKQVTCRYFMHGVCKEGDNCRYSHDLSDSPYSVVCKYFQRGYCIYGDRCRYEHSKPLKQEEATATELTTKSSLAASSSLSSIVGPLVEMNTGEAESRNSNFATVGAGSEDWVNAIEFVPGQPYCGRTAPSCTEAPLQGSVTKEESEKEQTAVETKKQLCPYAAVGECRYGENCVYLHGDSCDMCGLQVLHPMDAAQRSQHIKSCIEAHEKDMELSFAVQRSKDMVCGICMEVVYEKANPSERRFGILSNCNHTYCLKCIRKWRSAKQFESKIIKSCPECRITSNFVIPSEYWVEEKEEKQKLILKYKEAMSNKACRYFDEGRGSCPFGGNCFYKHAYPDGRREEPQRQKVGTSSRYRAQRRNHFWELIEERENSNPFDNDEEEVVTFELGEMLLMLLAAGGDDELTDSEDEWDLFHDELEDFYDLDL
UniProt Q99547: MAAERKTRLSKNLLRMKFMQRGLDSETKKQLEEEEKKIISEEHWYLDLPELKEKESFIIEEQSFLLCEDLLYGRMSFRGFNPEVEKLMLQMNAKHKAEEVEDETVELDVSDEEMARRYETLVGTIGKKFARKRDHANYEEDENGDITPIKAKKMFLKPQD
UniProt P40692: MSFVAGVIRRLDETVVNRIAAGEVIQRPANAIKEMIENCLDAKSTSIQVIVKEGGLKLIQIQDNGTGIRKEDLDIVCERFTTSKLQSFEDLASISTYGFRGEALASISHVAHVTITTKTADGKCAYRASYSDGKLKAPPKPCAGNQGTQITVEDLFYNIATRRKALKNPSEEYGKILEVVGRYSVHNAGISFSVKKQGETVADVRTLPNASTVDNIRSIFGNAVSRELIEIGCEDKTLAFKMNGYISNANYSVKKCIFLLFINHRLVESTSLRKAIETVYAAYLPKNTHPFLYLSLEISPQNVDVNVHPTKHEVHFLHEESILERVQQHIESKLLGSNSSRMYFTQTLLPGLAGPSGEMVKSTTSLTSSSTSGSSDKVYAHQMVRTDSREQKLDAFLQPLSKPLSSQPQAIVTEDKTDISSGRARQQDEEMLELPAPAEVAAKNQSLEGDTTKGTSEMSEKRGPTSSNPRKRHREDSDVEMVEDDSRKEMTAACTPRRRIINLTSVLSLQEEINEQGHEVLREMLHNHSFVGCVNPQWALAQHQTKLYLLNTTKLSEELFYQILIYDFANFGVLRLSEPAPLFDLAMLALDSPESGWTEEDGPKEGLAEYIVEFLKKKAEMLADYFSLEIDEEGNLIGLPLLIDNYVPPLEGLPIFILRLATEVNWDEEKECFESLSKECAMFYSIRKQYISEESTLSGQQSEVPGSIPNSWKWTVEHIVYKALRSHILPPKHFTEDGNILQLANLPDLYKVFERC
UniProt Q9BWT6: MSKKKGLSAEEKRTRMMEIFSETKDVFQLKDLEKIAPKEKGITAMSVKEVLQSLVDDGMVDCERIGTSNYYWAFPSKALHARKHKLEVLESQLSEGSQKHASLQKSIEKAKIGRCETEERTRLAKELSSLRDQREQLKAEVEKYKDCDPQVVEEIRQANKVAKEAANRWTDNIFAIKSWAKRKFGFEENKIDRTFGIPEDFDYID
UniProt O95297: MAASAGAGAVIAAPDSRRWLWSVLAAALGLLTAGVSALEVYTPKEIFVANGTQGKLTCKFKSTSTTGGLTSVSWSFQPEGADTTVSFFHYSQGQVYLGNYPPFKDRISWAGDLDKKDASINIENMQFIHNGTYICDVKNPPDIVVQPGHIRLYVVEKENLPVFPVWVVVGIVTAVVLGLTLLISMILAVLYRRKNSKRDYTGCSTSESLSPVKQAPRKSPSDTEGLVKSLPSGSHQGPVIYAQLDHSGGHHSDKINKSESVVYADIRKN
UniProt Q9UL63, whole entry, looked up: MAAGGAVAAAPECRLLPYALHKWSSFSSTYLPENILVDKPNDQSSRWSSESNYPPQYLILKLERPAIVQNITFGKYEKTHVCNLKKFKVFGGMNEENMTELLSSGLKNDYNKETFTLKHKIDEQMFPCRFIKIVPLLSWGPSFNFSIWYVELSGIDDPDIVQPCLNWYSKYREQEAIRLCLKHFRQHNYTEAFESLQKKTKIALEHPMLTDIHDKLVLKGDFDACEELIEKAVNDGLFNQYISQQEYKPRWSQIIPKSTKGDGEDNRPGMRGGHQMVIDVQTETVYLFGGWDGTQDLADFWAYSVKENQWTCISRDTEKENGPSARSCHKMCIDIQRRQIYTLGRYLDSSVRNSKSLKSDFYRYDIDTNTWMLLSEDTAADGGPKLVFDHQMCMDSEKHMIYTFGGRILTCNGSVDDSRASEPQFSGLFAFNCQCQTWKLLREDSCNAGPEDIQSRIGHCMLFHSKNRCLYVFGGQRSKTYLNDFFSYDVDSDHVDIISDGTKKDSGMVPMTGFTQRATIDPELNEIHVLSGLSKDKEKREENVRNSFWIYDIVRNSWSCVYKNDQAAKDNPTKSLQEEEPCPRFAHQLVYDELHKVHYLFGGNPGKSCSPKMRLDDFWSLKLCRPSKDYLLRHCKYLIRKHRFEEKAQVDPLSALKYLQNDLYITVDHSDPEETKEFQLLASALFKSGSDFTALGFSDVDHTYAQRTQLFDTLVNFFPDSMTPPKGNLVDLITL
UniProt Q9NV56, whole entry, looked up: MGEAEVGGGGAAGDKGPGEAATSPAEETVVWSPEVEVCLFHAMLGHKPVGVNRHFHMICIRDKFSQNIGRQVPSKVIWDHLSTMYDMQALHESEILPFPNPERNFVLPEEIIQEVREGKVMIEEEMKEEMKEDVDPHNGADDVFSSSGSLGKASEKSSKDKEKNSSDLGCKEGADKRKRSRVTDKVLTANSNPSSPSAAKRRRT
UniProt O95563: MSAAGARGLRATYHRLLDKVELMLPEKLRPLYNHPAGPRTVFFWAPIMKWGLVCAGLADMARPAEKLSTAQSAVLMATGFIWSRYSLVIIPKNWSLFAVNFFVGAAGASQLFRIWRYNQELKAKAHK
UniProt Q29983, whole entry, looked up: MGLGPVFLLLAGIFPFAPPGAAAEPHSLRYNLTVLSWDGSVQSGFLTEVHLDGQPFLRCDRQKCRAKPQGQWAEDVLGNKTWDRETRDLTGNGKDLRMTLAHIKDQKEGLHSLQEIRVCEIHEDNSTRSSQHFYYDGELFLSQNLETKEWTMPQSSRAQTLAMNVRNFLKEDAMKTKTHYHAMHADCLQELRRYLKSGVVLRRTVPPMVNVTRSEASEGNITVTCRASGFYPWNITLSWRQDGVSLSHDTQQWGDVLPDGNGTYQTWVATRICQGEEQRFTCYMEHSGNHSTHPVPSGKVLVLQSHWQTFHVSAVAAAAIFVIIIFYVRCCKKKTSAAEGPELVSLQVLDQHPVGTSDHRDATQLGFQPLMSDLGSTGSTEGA
UniProt Q8N4C8: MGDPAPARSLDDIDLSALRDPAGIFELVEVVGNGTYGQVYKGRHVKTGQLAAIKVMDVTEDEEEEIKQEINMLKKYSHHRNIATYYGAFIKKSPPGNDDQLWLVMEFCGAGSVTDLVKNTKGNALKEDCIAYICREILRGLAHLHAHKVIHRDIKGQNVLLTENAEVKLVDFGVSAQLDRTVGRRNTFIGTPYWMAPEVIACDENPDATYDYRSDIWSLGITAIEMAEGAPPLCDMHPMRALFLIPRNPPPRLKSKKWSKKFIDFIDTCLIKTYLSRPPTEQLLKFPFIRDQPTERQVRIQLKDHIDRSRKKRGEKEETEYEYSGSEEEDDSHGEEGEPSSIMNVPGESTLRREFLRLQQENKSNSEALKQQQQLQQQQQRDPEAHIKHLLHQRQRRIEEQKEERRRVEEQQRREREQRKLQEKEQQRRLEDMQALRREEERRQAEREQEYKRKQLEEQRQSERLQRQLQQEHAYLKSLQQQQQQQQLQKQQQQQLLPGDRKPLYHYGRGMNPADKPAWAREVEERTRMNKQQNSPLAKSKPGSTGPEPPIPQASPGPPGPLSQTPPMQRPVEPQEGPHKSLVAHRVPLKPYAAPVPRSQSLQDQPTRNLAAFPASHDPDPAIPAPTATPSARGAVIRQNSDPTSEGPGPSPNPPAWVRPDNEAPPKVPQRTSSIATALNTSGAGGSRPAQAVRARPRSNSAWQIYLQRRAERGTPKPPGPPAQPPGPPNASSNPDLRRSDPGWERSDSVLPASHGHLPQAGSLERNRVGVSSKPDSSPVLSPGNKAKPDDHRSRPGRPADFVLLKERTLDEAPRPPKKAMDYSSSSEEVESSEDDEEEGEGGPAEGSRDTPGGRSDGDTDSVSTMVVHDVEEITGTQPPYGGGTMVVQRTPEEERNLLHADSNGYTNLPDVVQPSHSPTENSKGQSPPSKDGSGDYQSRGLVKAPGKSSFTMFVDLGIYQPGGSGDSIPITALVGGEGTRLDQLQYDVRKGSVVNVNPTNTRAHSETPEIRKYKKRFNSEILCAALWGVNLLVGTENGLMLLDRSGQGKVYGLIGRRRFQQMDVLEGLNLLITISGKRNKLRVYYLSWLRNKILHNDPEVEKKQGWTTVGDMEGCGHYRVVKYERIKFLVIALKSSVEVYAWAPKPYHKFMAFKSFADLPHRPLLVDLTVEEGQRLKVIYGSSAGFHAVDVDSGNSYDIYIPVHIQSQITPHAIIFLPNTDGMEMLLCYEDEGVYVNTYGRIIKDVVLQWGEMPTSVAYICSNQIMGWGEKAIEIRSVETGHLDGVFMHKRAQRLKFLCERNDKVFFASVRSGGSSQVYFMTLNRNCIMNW
UniProt Q70IA6: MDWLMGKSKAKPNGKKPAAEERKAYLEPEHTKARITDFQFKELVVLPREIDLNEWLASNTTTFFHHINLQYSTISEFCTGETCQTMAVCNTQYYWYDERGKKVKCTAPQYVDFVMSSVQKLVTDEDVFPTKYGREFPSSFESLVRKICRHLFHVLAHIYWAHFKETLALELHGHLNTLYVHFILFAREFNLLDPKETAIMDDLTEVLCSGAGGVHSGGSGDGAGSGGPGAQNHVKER
UniProt Q7L9L4: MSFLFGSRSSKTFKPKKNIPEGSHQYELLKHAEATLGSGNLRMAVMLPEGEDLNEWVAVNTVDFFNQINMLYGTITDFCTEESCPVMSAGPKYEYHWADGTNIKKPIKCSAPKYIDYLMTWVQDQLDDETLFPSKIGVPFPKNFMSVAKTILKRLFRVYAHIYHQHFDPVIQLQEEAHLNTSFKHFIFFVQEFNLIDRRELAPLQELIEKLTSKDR
UniProt Q8N108: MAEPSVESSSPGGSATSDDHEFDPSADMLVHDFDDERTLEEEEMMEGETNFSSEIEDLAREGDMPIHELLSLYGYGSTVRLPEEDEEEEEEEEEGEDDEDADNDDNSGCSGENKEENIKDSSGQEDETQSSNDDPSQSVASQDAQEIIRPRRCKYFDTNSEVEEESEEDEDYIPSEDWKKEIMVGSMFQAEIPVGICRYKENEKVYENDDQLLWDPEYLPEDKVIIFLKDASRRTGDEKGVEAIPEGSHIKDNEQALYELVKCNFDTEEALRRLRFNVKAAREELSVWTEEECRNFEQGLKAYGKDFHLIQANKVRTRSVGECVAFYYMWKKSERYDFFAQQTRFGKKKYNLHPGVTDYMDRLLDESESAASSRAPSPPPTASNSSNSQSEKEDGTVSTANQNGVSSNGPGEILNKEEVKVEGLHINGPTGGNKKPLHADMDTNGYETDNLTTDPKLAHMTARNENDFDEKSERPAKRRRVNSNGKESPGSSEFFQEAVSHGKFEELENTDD
UniProt O96007: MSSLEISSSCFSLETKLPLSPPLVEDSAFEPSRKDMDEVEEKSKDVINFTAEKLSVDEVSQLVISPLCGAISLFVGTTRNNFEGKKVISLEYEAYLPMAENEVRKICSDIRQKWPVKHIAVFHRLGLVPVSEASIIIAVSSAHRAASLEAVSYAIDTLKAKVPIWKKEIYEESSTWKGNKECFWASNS
UniProt Q5TGZ0: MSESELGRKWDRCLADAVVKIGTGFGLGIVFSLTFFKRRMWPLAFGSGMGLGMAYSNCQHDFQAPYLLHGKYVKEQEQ

Tests used:
Assay in all cases: log2 fold change, soluble protein after heating vs DMSO (PISA); higher = thermal stabilisation; K562 lysate, 10 uM; active = over 0.2 and 3.5 SD of the protein, either way, in both replicates (recomputed)
[1] = compound: CN1CC[C@H](c2c(O)cc(O)c3c(=O)cc(-c4ccccc4Cl)oc23)[C@H](O)C1 [alvocidib]
Method in brief: (§1)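 The values are log-two fold changes in thermal stability compared with solvent controls and come from duplicates. They were obtained by TMTpro 16plex LC-MS/MS, with channel sums equalised, on the supernatant after 21,000xg for 90 min. That supernatant came from crude K562 extract at 1 mg/mL protein treated with 10 μM compound for 30 min, heated for 3 min across 48°C-58°C, pooled and brought to 0.5% NP-40 at 4°C.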

[2] = compound: CN1CCc2c(c3ccccc3n2Cc2ccc(C(=O)NO)cc2)C1 [Tubastatin A]
Method in brief: as §1

[3] = compound: CNC(=O)C1=CC=CC=C1NC2=NC(=NC=C2Cl)NC3=C(C=C(C=C3)N4CCOCC4)OC
Method in brief: as §1

[4] = compound: CNC(=O)c1ccc(Nc2ncc(C(F)(F)F)c(NCc3nccnc3N(C)S(C)(=O)=O)n2)cc1 [defactinib]
Method in brief: as §1

[5] = compound: CNc1nc(-c2ccc3c(N)n[nH]c3c2)cc(N2C[C@@H](C(=O)NC3CCCCC3)CC[C@H]2C)n1
Method in brief: as §1

[6] = compound: COC(=O)N[C@@H](C)CNc1nccc(-c2cn(C(C)C)nc2-c2cc(Cl)cc(NS(C)(=O)=O)c2F)n1 [encorafenib]
Method in brief: as §1

[7] = compound: COC(=O)[C@H](CCSC)NC(=O)C1=C(C=C(C=C1)NC[C@H](CS)N)C2=CC=CC=C2
Method in brief: as §1

[8] = compound: COc1cc(Nc2ncc3c(n2)-c2ccc(Cl)cc2C(c2c(F)cccc2OC)=NC3)ccc1C(=O)O [alisertib]
Method in brief: as §1

[9] = compound: COc1cc2nc(-c3cc(F)ccc3O)nc(N[C@@H]3CNC[C@H]3C(C)(C)O)c2cc1OC
Method in brief: as §1

[10] = compound: COc1cc2ncnc(Nc3ccc(F)c(Cl)c3)c2cc1OCCCN1CCOCC1 [gefitinib]
Method in brief: as §1

Measured: log2 fold change

MRM3 (UniProt Q9HC36)
inactive: [1] -0.031 | [2] 0.015 | [3] 0.029 | [4] -0.006 | [5] 0.034 | [6] -0.002 | [7] -0.003 | [8] 0.06 | [9] 0.018 | [10] 0.054

MKRN1 (UniProt Q9UHC7)
inactive: [1] -0.048 | [2] 0.012 | [3] 0.018 | [4] 0.012 | [5] -0.057 | [6] -0.006 | [7] 0 | [8] 0.039 | [9] -0.011 | [10] 0.063

MRPL10 isoform 2 (UniProt Q7Z7H8)
inactive: [1] 0.024 | [2] -0.013 | [3] -0.035 | [4] 0.023 | [5] 0.074 | [6] 0.031 | [7] 0.183 | [8] 0.028 | [9] -0.025 | [10] -0.019

MIER2 (UniProt Q8N344)
inactive: [1] -0.21 | [2] 0.03 | [3] 0.126 | [4] -0.094 | [5] -0.027 | [6] 0.102 | [7] -0.099

MRPL15 (UniProt Q9P015)
inactive: [1] -0.122 | [2] 0.022 | [3] -0.014 | [4] -0.011 | [5] 0.088 | [6] 0.053 | [7] -0.013 | [8] 0.006 | [9] -0.014 | [10] -0.027

MPHOSPH6 (UniProt Q99547)
inactive: [1] 0.039 | [2] 0.014 | [3] -0.014 | [4] 0.02 | [5] 0.042 | [6] 0.021 | [7] -0.026 | [8] 0.035 | [9] 0.003 | [10] 0.004

MLH1 (UniProt P40692)
inactive: [1] 0.011 | [2] -0.167 | [3] -0.039 | [4] 0.004 | [5] -0.013 | [6] 0.044 | [7] 0.129 | [8] -0.01 | [9] 0.048 | [10] -0.053

MKRN2 (UniProt Q9H000)
inactive: [1] 0.075 | [2] -0.068 | [3] 0.021 | [4] -0.037 | [5] -0.027 | [6] -0.006 | [7] -0.021 | [8] 0.037 | [9] -0.043 | [10] 0.001

MND1 (UniProt Q9BWT6)
inactive: [1] 0.068 | [2] -0.023 | [3] 0.02 | [4] 0.038 | [5] -0.044 | [6] -0.002 | [7] -0.036 | [8] 0.007 | [9] -0.003 | [10] -0.01

MRPL1 (UniProt Q9BYD6)
inactive: [1] -0.028 | [2] -0.049 | [3] -0.049 | [4] -0.002 | [5] 0.012 | [6] -0.01 | [7] 0.052 | [8] -0.009 | [9] 0.003 | [10] 0.034

MPZL1 (UniProt O95297)
inactive: [1] -0.01 | [2] 0.048 | [3] -0.014 | [4] 0.01 | [5] 0.028 | [6] 0.045 | [7] -0.082 | [8] 0.007 | [9] 0.012 | [10] 0.016

MKLN1 (UniProt Q9UL63)
inactive: [1] -0.008 | [2] -0.006 | [3] 0 | [4] 0.008 | [5] 0.043 | [6] 0.024 | [7] -0.002 | [8] 0.019 | [9] -0.016 | [10] 0

MINDY3 (UniProt Q9H8M7)
inactive: [1] -0.036 | [2] -0.006 | [3] -0.014 | [4] 0.032 | [5] -0.025 | [6] -0.001 | [7] -0.051 | [8] -0.01 | [9] -0.018 | [10] 0

MRGBP (UniProt Q9NV56)
inactive: [1] 0.047 | [2] 0.05 | [3] -0.013 | [4] 0.043 | [5] 0.013 | [6] 0.157 | [7] -0.172 | [8] 0.152 | [9] -0.042 | [10] -0.21

MPC2 (UniProt O95563)
inactive: [1] -0.093 | [2] -0.096 | [3] -0.02 | [4] -0.039 | [5] 0.059 | [6] -0.019 | [7] 0.016 | [8] 0.023 | [9] -0.011 | [10] 0.036

MGAT4B isoform 3 (UniProt Q9UQ53)
inactive: [1] 0.007 | [2] 0.092 | [3] -0.004 | [4] 0.088 | [5] 0.024 | [6] -0.001 | [7] -0.21 | [8] 0.022 | [9] 0.027 | [10] 0.069

MMS19 isoform 8 (UniProt Q96T76)
inactive: [1] 0.008 | [2] -0.144 | [3] 0 | [4] -0.027 | [5] 0.007 | [6] 0.014 | [7] 0.128 | [8] 0.002 | [9] 0.001 | [10] -0.022

MICA (UniProt Q29983)
inactive: [1] -0.117

MLLT1 (UniProt Q03111)
inactive: [1] -0.001 | [2] 0.02 | [3] 0.031 | [4] 0.039 | [5] 0.087 | [6] 0.053 | [7] -0.064 | [8] 0.017 | [9] 0 | [10] -0.027

MOGS (UniProt Q13724)
inactive: [1] 0.012 | [2] 0.071 | [3] -0.018 | [4] 0.03 | [5] -0.012 | [6] 0.046 | [7] -0.017 | [8] 0.035 | [9] -0.005 | [10] -0.025

MRPL12 (UniProt P52815)
inactive: [1] 0.066 | [2] 0.117 | [3] 0.06 | [4] 0.096 | [5] 0.037 | [6] 0.003 | [7] -0.079 | [8] 0.115 | [9] -0.01 | [10] -0.153

MITF (UniProt O75030)
inactive: [1] -0.008 | [2] -0.034 | [3] 0 | [4] -0.031 | [5] 0.083 | [6] 0.01 | [7] -0.078

MINK1 (UniProt Q8N4C8)
inactive: [1] -0.049 | [2] -0.137 | [3] 0.055 | [4] 0.025 | [5] 0.109 | [6] -0.133 | [7] 0.022 | [8] 0.051 | [9] -0.003

MOB2 isoform 3 (UniProt Q70IA6)
inactive: [1] 0.007 | [2] -0.036 | [3] 0.112 | [4] 0.062 | [5] -0.008 | [6] 0.088 | [7] 0.083 | [8] -0.014 | [9] 0.071 | [10] -0.016

Pulled one by one from above (two):
MRGBP (UniProt Q9NV56)
inactive: [1] 0.047 | [2] 0.05 | [3] -0.013 | [4] 0.043 | [5] 0.013 | [6] 0.157 | [7] -0.172 | [8] 0.152 | [9] -0.042 | [10] -0.21

MRPL10 isoform 2 (UniProt Q7Z7H8)
inactive: [1] 0.024 | [2] -0.013 | [3] -0.035 | [4] 0.023 | [5] 0.074 | [6] 0.031 | [7] 0.183 | [8] 0.028 | [9] -0.025 | [10] -0.019

Remaining list, next part.

MOB1B isoform 2 (UniProt Q7L9L4)
inactive: [1] -0.053 | [2] 0.046 | [3] 0.02 | [4] -0.035 | [5] 0.026 | [6] -0.014 | [7] -0.019 | [8] -0.061 | [9] 0.027 | [10] 0.027

MIER1 isoform 12 (UniProt Q8N108)
inactive: [1] -0.011 | [2] -0.018 | [3] -0.021 | [4] -0.014 | [5] 0.007 | [6] -0.007 | [7] 0.024 | [8] -0.02 | [9] 0.006 | [10] -0.04

MPDZ (UniProt O75970)
inactive: [1] 0.028 | [2] 0.117 | [3] 0.236 | [4] 0.053 | [5] 0.099 | [6] -0.091 | [7] -0.032 | [8] -0.167 | [9] -0.114 | [10] 0.228

MOCS2 (UniProt O96007)
inactive: [1] 0.026 | [2] -0.005 | [3] 0.034 | [4] -0.018 | [5] -0.002 | [6] 0.012 | [7] -0.066 | [8] 0.029 | [9] -0.02 | [10] -0.07

MICOS10 (UniProt Q5TGZ0)
inactive: [1] -0.052 | [2] -0.027 | [3] 0.081 | [4] 0.106 | [5] -0.031 | [6] 0.013 | [7] 0 | [8] -0.017 | [9] -0.059 | [10] -0.052

MORC2 (UniProt Q9Y6X9)
inactive: [1] 0.018 | [2] -0.095 | [3] 0 | [4] 0.013 | [5] -0.012 | [6] 0.02 | [7] 0.025 | [8] 0.001 | [9] -0.008 | [10] -0.02

MORC3 (UniProt Q14149)
inactive: [1] -0.015 | [2] -0.098 | [3] 0.017 | [4] 0.018 | [5] -0.028 | [6] 0.007 | [7] 0.038 | [8] -0.003 | [9] 0.021 | [10] -0.01
